# Measurements published in the supplement of paper PMC12819154, “High-throughput peptide-centric local stability assay extends protein–ligand identification to membrane proteins, tissues and bacteria” (Nature Structural & Molecular Biology, 2025).
# This is one part of the list. Most values lie at the level of the controls, where differences are scatter.
# Compound: CC1(C)S[C@@H]2[C@H](NC(=O)[C@H](N)c3ccccc3)C(=O)N2[C@H]1C(=O)O [ampicillin]
# Assay: log2 fold change of tryptic peptide abundance, ligand vs vehicle (limited proteolysis) (log2 ratio); higher = more trypsin-susceptible (destabilized)
# Details: ligand concentration: 10 uM; sample: E. coli crude lysate
row,Target,log2 fold change
1,"UniProt P05824 (peptide sequence: ETDGAMTETHMQSLNKK, peptide start residue: 508)",-0.354
2,"UniProt P02929 (peptide sequence: KVQEQPKR, peptide start residue: 105)",0.24
3,"UniProt P08956 (peptide sequence: TKSGIWYRDVR, peptide start residue: 391)",-0.707
4,"UniProt P09148 (peptide sequence: RYNPLTGQWILVSPHR, peptide start residue: 13)",-0.441
5,"UniProt P04994 (peptide sequence: LEDGWIESEVK, peptide start residue: 433)",-0.498
6,"UniProt P05827 (peptide sequence: LHEPLIEAFWK, peptide start residue: 281)",-0.352
7,"UniProt P0A698 (peptide sequence: NINLVIPR, peptide start residue: 16)",-0.192
8,"UniProt P08660 (peptide sequence: NQTLLTLHSLNMLHSR, peptide start residue: 307)",0.167
9,"UniProt P06720 (peptide sequence: YKVPLDEYPK, peptide start residue: 288)",-0.218
10,"UniProt P09184 (peptide sequence: TEFWLEK, peptide start residue: 83)",0.0682
11,"UniProt P06999 (peptide sequence: ELSALVNR, peptide start residue: 190)",-0.125
12,"UniProt P03030 (peptide sequence: HDLGLTETLHTPAGTER, peptide start residue: 144)",0.354
13,"UniProt P00946 (peptide sequence: FEAKPANQLLTQPVK, peptide start residue: 293)",0.259
14,"UniProt P00904 (peptide sequence: LHGHEDLQANAQTVLEVLR, peptide start residue: 498)",-0.53
15,"UniProt P09154 (peptide sequence: LKEDELK, peptide start residue: 97)",0.0781
16,"UniProt P07330 (peptide sequence: LRPMPVVMVSSLTGK, peptide start residue: 74)",-0.488
17,"UniProt P09053 (peptide sequence: HSGITLLMEDLNDGLR, peptide start residue: 13)",0.198
18,"UniProt P09163 (peptide sequence: SVDATHDFLSAEYR, peptide start residue: 23)",0.231

row,Target,log2 fold change
1,"UniProt P08390 (peptide sequence: QLAFNMLPLLPDSEGSVREERR, peptide start residue: 194)",-0.238
2,"UniProt P09549 (peptide sequence: NADKVNEIVGK, peptide start residue: 153)",0.315
3,"UniProt P09126 (peptide sequence: TTALALHTVSGQK, peptide start residue: 90)",0.332
4,"UniProt P09030 (peptide sequence: DHPIKFPAK, peptide start residue: 117)",-0.233
5,"UniProt P00490 (peptide sequence: ENPQADRVPR, peptide start residue: 558)",-0.312
6,"UniProt P08395 (peptide sequence: NITGIVMDLK, peptide start residue: 112)",0.195
7,"UniProt P07023 (peptide sequence: ESYSSENDKGFK, peptide start residue: 81)",-0.147
8,"UniProt P09162 (peptide sequence: QFHIHAQSAVLSDSAVMAMLK, peptide start residue: 105)",-0.347
9,"UniProt P08190 (peptide sequence: TVQVDDSSQSAHFPLQVR, peptide start residue: 126)",-0.621
10,"UniProt P02916 (peptide sequence: NYLSDAFK, peptide start residue: 143)",0.197
11,"UniProt P00944 (peptide sequence: MIEDGELDKR, peptide start residue: 373)",0.646
12,"UniProt P0A6H5 (peptide sequence: NILMIGPTGVGKTEIAR, peptide start residue: 52)",-0.27
13,"UniProt P06721 (peptide sequence: YTLGAVNSVIQR, peptide start residue: 19)",0.152
14,"UniProt P07604 (peptide sequence: SKVDMANPASCQLFGQK, peptide start residue: 100)",0.26
15,"UniProt P06974 (peptide sequence: EFTHTEQR, peptide start residue: 145)",-0.632
16,"UniProt P06965 (peptide sequence: LASLYSWK, peptide start residue: 24)",-0.434
17,"UniProt P08957 (peptide sequence: LALMNCLLHDIEGNLDHGGAIR, peptide start residue: 224)",-0.302

# Rewritten with tabs: part of the list above.
row	Target	log2 fold change
12	UniProt P0A6H5 (peptide sequence: NILMIGPTGVGKTEIAR, peptide start residue: 52)	-0.27
13	UniProt P06721 (peptide sequence: YTLGAVNSVIQR, peptide start residue: 19)	0.152
